Results as given in patent US20210324094A1.
No constants are given. Whether binding was seen depends on the method and setting. Some results given as binding are weak or reduced against the parent protein; the word gives no strength.

Chains of the proteins cited; added tags and fusions are not shown. Residues count along the entry.
UniProt P06213, residues 28-956: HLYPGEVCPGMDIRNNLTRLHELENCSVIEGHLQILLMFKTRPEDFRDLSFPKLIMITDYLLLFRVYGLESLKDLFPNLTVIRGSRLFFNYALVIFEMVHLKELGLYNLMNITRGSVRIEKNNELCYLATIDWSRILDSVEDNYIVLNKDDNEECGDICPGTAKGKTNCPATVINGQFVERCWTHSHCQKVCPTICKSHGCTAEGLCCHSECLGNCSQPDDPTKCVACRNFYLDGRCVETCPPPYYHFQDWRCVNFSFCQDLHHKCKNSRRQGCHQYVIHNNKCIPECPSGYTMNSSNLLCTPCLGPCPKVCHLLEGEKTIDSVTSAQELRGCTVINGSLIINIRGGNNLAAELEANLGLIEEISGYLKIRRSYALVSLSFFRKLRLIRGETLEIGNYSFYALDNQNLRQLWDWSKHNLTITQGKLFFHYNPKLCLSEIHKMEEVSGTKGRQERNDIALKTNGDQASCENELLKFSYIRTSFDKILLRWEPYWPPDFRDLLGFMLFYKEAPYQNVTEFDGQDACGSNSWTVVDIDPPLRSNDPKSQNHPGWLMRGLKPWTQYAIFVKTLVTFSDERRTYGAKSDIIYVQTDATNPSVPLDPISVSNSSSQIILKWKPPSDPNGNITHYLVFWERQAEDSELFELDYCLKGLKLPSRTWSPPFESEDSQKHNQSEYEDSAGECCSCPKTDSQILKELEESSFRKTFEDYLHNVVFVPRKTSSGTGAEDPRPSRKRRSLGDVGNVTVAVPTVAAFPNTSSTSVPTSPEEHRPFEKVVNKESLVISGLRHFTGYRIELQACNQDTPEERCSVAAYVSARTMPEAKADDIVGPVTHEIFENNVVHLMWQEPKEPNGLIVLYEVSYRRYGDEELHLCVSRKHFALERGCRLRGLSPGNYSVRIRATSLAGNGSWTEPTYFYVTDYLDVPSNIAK
UniProt P15208, residues 28-946: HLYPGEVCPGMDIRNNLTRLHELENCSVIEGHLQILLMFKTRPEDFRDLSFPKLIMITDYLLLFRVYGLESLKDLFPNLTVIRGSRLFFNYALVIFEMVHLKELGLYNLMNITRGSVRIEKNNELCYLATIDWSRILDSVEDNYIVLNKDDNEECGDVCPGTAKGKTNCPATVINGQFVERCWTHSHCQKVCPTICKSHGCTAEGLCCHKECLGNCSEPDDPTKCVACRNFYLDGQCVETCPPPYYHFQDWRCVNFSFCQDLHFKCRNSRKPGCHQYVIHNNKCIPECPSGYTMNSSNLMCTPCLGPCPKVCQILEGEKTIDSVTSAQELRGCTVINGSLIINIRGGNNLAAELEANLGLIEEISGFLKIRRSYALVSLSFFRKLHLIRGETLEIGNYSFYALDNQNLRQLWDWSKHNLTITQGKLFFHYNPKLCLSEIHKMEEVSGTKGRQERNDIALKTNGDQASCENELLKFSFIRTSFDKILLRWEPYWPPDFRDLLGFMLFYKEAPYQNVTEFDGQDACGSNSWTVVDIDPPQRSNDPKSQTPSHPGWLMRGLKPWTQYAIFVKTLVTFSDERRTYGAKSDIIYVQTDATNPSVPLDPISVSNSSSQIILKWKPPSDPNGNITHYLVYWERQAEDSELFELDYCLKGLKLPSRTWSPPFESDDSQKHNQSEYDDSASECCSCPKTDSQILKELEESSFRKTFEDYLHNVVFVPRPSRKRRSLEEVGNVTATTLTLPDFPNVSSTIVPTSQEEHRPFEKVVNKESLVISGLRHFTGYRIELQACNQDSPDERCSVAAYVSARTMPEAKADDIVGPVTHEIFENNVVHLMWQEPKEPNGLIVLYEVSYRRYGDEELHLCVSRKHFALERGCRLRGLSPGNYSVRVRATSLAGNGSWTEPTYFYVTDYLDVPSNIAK

Columns and labels:
Human IR (human) [1] = molecular target: Human IR (human) (UniProt P06213); assay: ELISA, IR-coated plate
Mouse IR (mouse) [2] = molecular target: Mouse IR (mouse) (UniProt P15208); assay: ELISA, IR-coated plate
Mouse IR (mouse) [3] = molecular target: Mouse IR (mouse) (UniProt P15208); assay: ELISA, plate coated with mouse IR at 5 µg/ml, peroxidase anti-human Fc IgG
Human IR (human) [4] = molecular target: Human IR (human) (UniProt P06213); assay: ELISA, plate coated with human IR at 5 µg/ml, peroxidase anti-human Fc IgG
Human IR (human) [5] = molecular target: Human IR (human) (UniProt P06213); assay: ELISA, IR-coated plate; IR739 as the reference
Mouse IR (mouse) [6] = molecular target: Mouse IR (mouse) (UniProt P15208); assay: ELISA, IR-coated plate; IR739 as the reference
Mouse IR (mouse) [7] = molecular target: Mouse IR (mouse) (UniProt P15208); assay: competitive ELISA on coated mouse IR, IR739 mixed with biotinylated insulin at 0.6-150 nM, IR739 detected with peroxidase anti-human Fc IgG
Human IR (human) [8] = molecular target: Human IR (human) (UniProt P06213); assay: competitive ELISA on coated human IR, IR739 mixed with biotinylated insulin at 0.6-150 nM, IR739 detected with peroxidase anti-human Fc IgG

Measured: binding

B1: L113 (antibody, V domains shown)
VH: EVQLVESGGGLVQPGGSLRLSCAASGFTFSSYYMSWVRQAPGKGLEWVSAISYGGSSTYYADSVKGRFTISRDNSKNTLYLQMNSLRAEDTAVYYCARHPSYGTVNHAYFDVWGQGTLVTVSS
VL: DIQMTQSPSSLSASVGDRVTITCGASRDVSSYLAWYQQKPGKAPKLLIYDANILQSGVPSRFSGSGSGTDFTLTISSLQPEDFATYYCLEYNSLPLTFGQGTKVEIKR
binds: Human IR (human) [1] | Mouse IR (mouse) [2] | Mouse IR (mouse) [3] | Human IR (human) [4]

B2: H118 (antibody, V domains shown)
VH: EVQLVESGGGLVQPGGSLRLSCAASGFTFSSYYMSWVRQAPGKGLEWVSAISYGGSSTYYADSVKGRFTISRDNSKNTLYLQMNSLRAEDTAVYYCARHPTYGTVNHAYFDVWGQGTLVTVSS
VL: DIQMTQSPSSLSASVGDRVTITCGASRDVSSYLAWYQQKPGKAPKLLIYDANILQSGVPSRFSGSGSGTDFTLTISSLQPEDFATYYCLEYNNLPLTFGQGTKVEIKR
binds: Human IR (human) [1] | Mouse IR (mouse) [2] | Mouse IR (mouse) [3] | Human IR (human) [4]

B3: IR739 (antibody, human IgG1, kappa, V domains shown)
VH: EVQLVESGGGLVQPGGSLRLSCAASGFTFSSYYMSWVRQAPGKGLEWVSAISYGGSSTYYADSVKGRFTISRDNSKNTLYLQMNSLRAEDTAVYYCARHPSYGTVNHAYFDVWGQGTLVTVSS
VL: DIQMTQSPSSLSASVGDRVTITCGASRDVSSYLAWYQQKPGKAPKLLIYDANILQSGVPSRFSGSGSGTDFTLTISSLQPEDFATYYCLEYNNLPLTFGQGTKVEIKR
not listed: Human IR (human) [1] | Mouse IR (mouse) [2]
binds: all other assays above

B4: H031 (antibody, V domains shown)
VH: EVQLVESGGGLVQPGGSLRLSCAASGFTFSSYYMSWVRQAPGKGLEWVSAISYGGSSTYYADSVKGRFTISRDNSKNTLYLQMNSLRAEDTAVYYCARHPRYGTVNHAYFDVWGQGTLVTVSS
VL: DIQMTQSPSSLSASVGDRVTITCGASRDVSSYLAWYQQKPGKAPKLLIYDANILQSGVPSRFSGSGSGTDFTLTISSLQPEDFATYYCLEYNNLPLTFGQGTKVEIKR
binds: Human IR (human) [1] | Mouse IR (mouse) [2] | Mouse IR (mouse) [3] | Human IR (human) [4]

B5: HL009 (antibody, V domains shown)
VH: EVQLVESGGGLVQPGGSLRLSCAASGFTFSSYYMSWVRQAPGKGLEWVSAISYGGSSTYYADSVKGRFTISRDNSKNTLYLQMNSLRAEDTAVYYCARHPRYGTVNHAYFDVWGQGTLVTVSS
VL: DIQMTQSPSSLSASVGDRVTITCGASRDVSSYLAWYQQKPGKAPKLLIYDANILQSGVPSRFSGSGSGTDFTLTISSLQPEDFATYYCLEYPNLPLTFGQGTKVEIKR
binds: Human IR (human) [1] | Mouse IR (mouse) [2] | Mouse IR (mouse) [3] | Human IR (human) [4]

B6: L016 (antibody, V domains shown)
VH: EVQLVESGGGLVQPGGSLRLSCAASGFTFSSYYMSWVRQAPGKGLEWVSAISYGGSSTYYADSVKGRFTISRDNSKNTLYLQMNSLRAEDTAVYYCARHPSYGTVNHAYFDVWGQGTLVTVSS
VL: DIQMTQSPSSLSASVGDRVTITCGASRDVSSYLAWYQQKPGKAPKLLIYDANILQSGVPSRFSGSGSGTDFTLTISSLQPEDFATYYCLEYNVLPLTFGQGTKVEIKR
binds: Human IR (human) [1] | Mouse IR (mouse) [2] | Mouse IR (mouse) [3] | Human IR (human) [4]
